Data as given in publication PMC12185749.
Results are given in words; binding and its absence hold for the method and conditions named. Binding seen in cells or lysates may run through a third protein. Tags and fused reporters may be left off the sequences shown.

Experiments:
[1] = biological target: T1, wild-type CLPTM1L-HA (UniProt Q96KA5); assay: co-IP; 293T cells co-transfected with ERLIN2-FLAG and CLPTM1L-HA (wild type or deletion mutants); immunoprecipitation with anti-HA antibodies, immunoblot
T1 sequence: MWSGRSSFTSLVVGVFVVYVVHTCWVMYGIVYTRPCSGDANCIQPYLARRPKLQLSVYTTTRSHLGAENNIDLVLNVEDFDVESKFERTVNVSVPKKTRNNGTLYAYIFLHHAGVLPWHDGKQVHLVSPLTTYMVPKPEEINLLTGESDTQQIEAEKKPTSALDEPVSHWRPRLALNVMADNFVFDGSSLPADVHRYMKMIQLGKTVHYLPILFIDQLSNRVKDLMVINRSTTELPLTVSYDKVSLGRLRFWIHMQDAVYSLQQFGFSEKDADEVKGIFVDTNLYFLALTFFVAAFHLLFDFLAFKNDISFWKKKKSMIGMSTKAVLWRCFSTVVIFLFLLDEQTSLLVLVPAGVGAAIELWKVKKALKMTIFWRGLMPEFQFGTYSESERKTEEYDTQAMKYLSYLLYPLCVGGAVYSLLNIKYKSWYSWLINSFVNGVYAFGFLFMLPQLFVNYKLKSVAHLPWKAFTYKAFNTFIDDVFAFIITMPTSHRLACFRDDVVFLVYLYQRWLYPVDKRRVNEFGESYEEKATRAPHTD

[2] = biological target: CLPTM1L-HA-ΔC2 (UniProt Q96KA5); assay: as above

ERLIN2-FLAG-ΔL5 (from UniProt O94905)
binding [1]: no binding

B1: wild-type ERLIN2-FLAG (protein, UniProt O94905 1-339)
chain: MAQLGAVVAVASSFFCASLFSAVHKIEEGHIGVYYRGGALLTSTSGPGFHLMLPFITSYKSVQTTLQTDEVKNVPCGTSGGVMIYFDRIEVVNFLVPNAVYDIVKNYTADYDKALIFNKIHHELNQFCSVHTLQEVYIELFDQIDENLKLALQQDLTSMAPGLVIQAVRVTKPNIPEAIRRNYELMESEKTKLLIAAQKQKVVEKEAETERKKALIEAEKVAQVAEITYGQKVMEKETEKKISEIEDAAFLAREKAKADAECYTAMKIAEANKLKLTPEYLQLMKYKAIASNSKIYFGKDIPNMFMDSAGSVSKQFEGLADKLSFGLEDEPLETATKEN
binding [2]: no binding
